The supplement of paper PMC8728848
The list shows a part of the results.

Assays:
Experiment in all cases: glycan array binding signal (z-score within array); higher = stronger binding
Conditions in all cases: glycan notation: IUPAC condensed, linker removed
[1] = biological target: Fuc(a1-2)Gal(b1-4)GlcNAc(b1-3)Gal(b1-4)GlcNAc(b1-3)Gal(b1-4)GlcNAc
Procedure, shortened: (§1)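 Glycan array binding is given as a within-array Z-score, which can be read as non-binding when negative. The arrays, 3228 of them, came from the Consortium for Functional Glycomics database and were retained only where the protein sequence was available. Z-scores were averaged across arrays of the same protein sequence at different concentrations or buffers and across linkers.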

[2] = biological target: Fuc(a1-2)Gal(b1-4)GlcNAc(b1-3)GalNAc
Procedure, shortened: as §1

[3] = biological target: Fuc(a1-2)Gal(b1-4)GlcNAc(b1-3)[Fuc(a1-2)Gal(b1-4)GlcNAc(b1-6)]GalNAc
Procedure, shortened: as §1

[4] = biological target: Fuc(a1-2)Gal(b1-4)GlcNAc(b1-3)[Fuc(a1-3)[Gal(b1-4)]GlcNAc(b1-6)]Gal(b1-4)Glc
Procedure, shortened: as §1

[5] = biological target: Fuc(a1-2)Gal(b1-4)GlcNAc(b1-6)GalNAc
Procedure, shortened: as §1

[6] = biological target: Fuc(a1-2)Gal(b1-4)GlcNAc6S
Procedure, shortened: as §1

[7] = biological target: Fuc(a1-2)Gal(b1-4)[Fuc(a1-3)]GlcNAc
Procedure, shortened: as §1

[8] = biological target: Fuc(a1-2)Gal(b1-4)[Fuc(a1-3)]GlcNAc(b1-2)Man(a1-3)[Fuc(a1-2)Gal(b1-4)[Fuc(a1-3)]GlcNAc(b1-2)Man(a1-6)]Man(b1-4)GlcNAc(b1-4)[Fuc(a1-6)]GlcNAc
Procedure, shortened: as §1

[9] = biological target: Fuc(a1-2)Gal(b1-4)[Fuc(a1-3)]GlcNAc(b1-2)[Fuc(a1-2)Gal(b1-4)[Fuc(a1-3)]GlcNAc(b1-4)]Man(a1-3)[Fuc(a1-2)Gal(b1-4)[Fuc(a1-3)]GlcNAc(b1-2)Man(a1-6)]Man(b1-4)GlcNAc(b1-4)GlcNAc
Procedure, shortened: as §1

[10] = biological target: Fuc(a1-2)Gal(b1-4)[Fuc(a1-3)]GlcNAc(b1-3)Gal(b1-4)[Fuc(a1-3)]GlcNAc
Procedure, shortened: as §1

[11] = biological target: Fuc(a1-2)Gal(b1-4)[Fuc(a1-3)]GlcNAc(b1-3)Gal(b1-4)[Fuc(a1-3)]GlcNAc(b1-3)Gal(b1-4)[Fuc(a1-3)]GlcNAc
Procedure, shortened: as §1

[12] = biological target: Fuc(a1-2)Gal(b1-4)[Fuc(a1-3)]GlcNAc(b1-3)GalNAc
Procedure, shortened: as §1

[13] = biological target: Fuc(a1-2)Gal(b1-4)[Fuc(a1-3)]GlcNAc(b1-3)[Neu5Ac(a2-6)Gal(b1-4)GlcNAc(b1-6)]Gal(b1-4)Glc
Procedure, shortened: as §1

[14] = biological target: Fuc(a1-2)Gal3S(b1-4)GlcNAc
Procedure, shortened: as §1

[15] = biological target: Fuc(a1-2)Gal6S(b1-3)GlcNAc
Procedure, shortened: as §1

[16] = biological target: Fuc(a1-2)Gal6S(b1-3)GlcNAc6S
Procedure, shortened: as §1

[17] = biological target: Fuc(a1-2)Gal6S(b1-4)Glc
Procedure, shortened: as §1

[18] = biological target: Fuc(a1-2)Gal6S(b1-4)Glc6S
Procedure, shortened: as §1

[19] = biological target: Fuc(a1-2)[Gal(a1-3)]Gal
Procedure, shortened: as §1

[20] = biological target: Fuc(a1-2)[Gal(a1-3)]Gal(b1-3)GalNAc
Procedure, shortened: as §1

[21] = biological target: Fuc(a1-2)[Gal(a1-3)]Gal(b1-3)GalNAc(b1-3)Gal(a1-4)Gal(b1-4)Glc
Procedure, shortened: as §1

[22] = biological target: Fuc(a1-2)[Gal(a1-3)]Gal(b1-3)GlcNAc
Procedure, shortened: as §1

[23] = biological target: Fuc(a1-2)[Gal(a1-3)]Gal(b1-3)GlcNAc(b1-2)Man(a1-3)[Fuc(a1-2)[Gal(a1-3)]Gal(b1-3)GlcNAc(b1-2)Man(a1-6)]Man(b1-4)GlcNAc(b1-4)GlcNAc
Procedure, shortened: as §1

[24] = biological target: Fuc(a1-2)[Gal(a1-3)]Gal(b1-3)GlcNAc(b1-2)Man(a1-3)[Fuc(a1-2)[Gal(a1-3)]Gal(b1-3)GlcNAc(b1-2)Man(a1-6)]Man(b1-4)GlcNAc(b1-4)[Fuc(a1-6)]GlcNAc
Procedure, shortened: as §1

[25] = biological target: Fuc(a1-2)[Gal(a1-3)]Gal(b1-3)GlcNAc(b1-3)GalNAc
Procedure, shortened: as §1

[26] = biological target: Fuc(a1-2)[Gal(a1-3)]Gal(b1-3)GlcNAc(b1-6)GalNAc
Procedure, shortened: as §1

[27] = biological target: Fuc(a1-2)[Gal(a1-3)]Gal(b1-4)Glc
Procedure, shortened: as §1

[28] = biological target: Fuc(a1-2)[Gal(a1-3)]Gal(b1-4)GlcNAc
Procedure, shortened: as §1

[29] = biological target: Fuc(a1-2)[Gal(a1-3)]Gal(b1-4)GlcNAc(b1-2)Man
Procedure, shortened: as §1

[30] = biological target: Fuc(a1-2)[Gal(a1-3)]Gal(b1-4)GlcNAc(b1-2)Man(a1-3)[Fuc(a1-2)[Gal(a1-3)]Gal(b1-4)GlcNAc(b1-2)Man(a1-6)]Man(b1-4)GlcNAc(b1-4)GlcNAc
Procedure, shortened: as §1

B1: EUL D1A first (Oryza sativa) (protein)
chain: MFGFGHHHNQAPAAPSDPNQIFKIFCRANENYCLTVRDSAVVLAPVNPKDEHQHWFKDMRFSTKVKDGEGMPAFALVNKATGLAVKHSLGQSHPVKLVPFNPEYEDASVLWTESKDVGKGFRCIRMVNNTRLNLDAFHGDKDHGGVRDGTTVVLWEWCKGDNQSWKILPWGPEAHSSSPGAATILEQKLISEEDLNSAVDHHHHHH
For B1, the “glycan array binding signal (z-score)” value [1] was -0.125, the “glycan array binding signal (z-score)” value [2] was -0.43 and the “glycan array binding signal (z-score)” value [3] was 0.609. The “glycan array binding signal (z-score)” value [4] was 2.74, the “glycan array binding signal (z-score)” value [5] was 0.018 and the “glycan array binding signal (z-score)” value [6] was -0.32. For the same binder, the “glycan array binding signal (z-score)” value [7] was -0.572, the “glycan array binding signal (z-score)” value [8] was 0.917 and the “glycan array binding signal (z-score)” value [9] was -1.23. The “glycan array binding signal (z-score)” value [10] was 0.568, the “glycan array binding signal (z-score)” value [11] was 0.387 and the “glycan array binding signal (z-score)” value [12] was 1.6. The “glycan array binding signal (z-score)” value [13] was -0.981, the “glycan array binding signal (z-score)” value [14] was -0.308 and the “glycan array binding signal (z-score)” value [15] was -1.16. The “glycan array binding signal (z-score)” value [16] was -0.397, the “glycan array binding signal (z-score)” value [17] was 0.534 and the “glycan array binding signal (z-score)” value [18] was -0.26. The “glycan array binding signal (z-score)” value [19] was -0.175, the “glycan array binding signal (z-score)” value [20] was -0.603 and the “glycan array binding signal (z-score)” value [21] was -1.32. For the same binder, the “glycan array binding signal (z-score)” value [22] was 0.384, the “glycan array binding signal (z-score)” value [23] was -0.232 and the “glycan array binding signal (z-score)” value [24] was 1.05. For the same binder, the “glycan array binding signal (z-score)” value [25] was 1.05, the “glycan array binding signal (z-score)” value [26] was -0.959 and the “glycan array binding signal (z-score)” value [27] was -0.696. The “glycan array binding signal (z-score)” value [28] was 1.85, the “glycan array binding signal (z-score)” value [29] was -0.123 and the “glycan array binding signal (z-score)” value [30] was 0.344.
